Test results from the supplement of paper PMC8728848.
Some of the results follow.

Tests used:
Assay in all cases: glycan array binding signal (z-score within array); higher = stronger binding
Conditions in all cases: glycan notation: IUPAC condensed, linker removed
[1] = molecular target: GlcNAc(b1-3)GalNAc
In short: (§1)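 Glycan array binding is given as a within-array Z-score, which can be read as non-binding when negative. The arrays, 3228 of them, came from the Consortium for Functional Glycomics database and were retained only where the protein sequence was available. Z-scores were averaged across arrays of the same protein sequence at different concentrations or buffers and across linkers.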

[2] = molecular target: GlcNAc(b1-3)Man
In short: as §1

[3] = molecular target: GlcNAc(b1-3)[GlcNAc(b1-4)][GlcNAc(b1-6)]GlcNAc
In short: as §1

[4] = molecular target: GlcNAc(b1-3)[GlcNAc(b1-6)]Gal(b1-4)GlcNAc
In short: as §1

[5] = molecular target: GlcNAc(b1-3)[GlcNAc(b1-6)]GalNAc
In short: as §1

[6] = molecular target: GlcNAc(b1-4)Gal(b1-4)GlcNAc
In short: as §1

[7] = molecular target: GlcNAc(b1-4)GlcNAc
In short: as §1

[8] = molecular target: GlcNAc(b1-4)GlcNAc(b1-4)GlcNAc
In short: as §1

[9] = molecular target: GlcNAc(b1-4)GlcNAc(b1-4)GlcNAc(b1-4)GlcNAc(b1-4)GlcNAc
In short: as §1

[10] = molecular target: GlcNAc(b1-4)GlcNAc(b1-4)GlcNAc(b1-4)GlcNAc(b1-4)GlcNAc(b1-4)GlcNAc
In short: as §1

[11] = molecular target: GlcNAc(b1-4)[GlcNAc(b1-6)]GalNAc
In short: as §1

[12] = molecular target: GlcNAc(b1-6)Gal(b1-4)GlcNAc
In short: as §1

[13] = molecular target: GlcNAc(b1-6)GalNAc
In short: as §1

[14] = molecular target: GlcNAc6S(b1-3)Gal(b1-4)GlcNAc
In short: as §1

[15] = molecular target: Kdn(a2-3)Gal(b1-3)GalNAc
In short: as §1

[16] = molecular target: Kdn(a2-3)Gal(b1-3)GlcNAc
In short: as §1

[17] = molecular target: Kdn(a2-3)Gal(b1-4)Glc
In short: as §1

[18] = molecular target: Kdn(a2-3)Gal(b1-4)GlcNAc
In short: as §1

[19] = molecular target: Kdn(a2-3)Gal(b1-4)[Fuc(a1-3)]GlcNAc
In short: as §1

[20] = molecular target: Kdn(a2-6)Gal(b1-4)GlcNAc
In short: as §1

[21] = molecular target: Man(a1-2)Man(a1-2)Man(a1-3)Man
In short: as §1

[22] = molecular target: Man(a1-2)Man(a1-2)Man(a1-6)[Man(a1-3)]Man
In short: as §1

[23] = molecular target: Man(a1-2)Man(a1-3)Man
In short: as §1

[24] = molecular target: Man(a1-2)Man(a1-3)[Man(a1-2)Man(a1-6)]Man
In short: as §1

[25] = molecular target: Man(a1-2)Man(a1-3)[Man(a1-2)Man(a1-6)]Man(a1-6)[Man(a1-2)Man(a1-2)Man(a1-3)]Man
In short: as §1

[26] = molecular target: Man(a1-2)Man(a1-3)[Man(a1-2)Man(a1-6)]Man(a1-6)[Man(a1-2)Man(a1-2)Man(a1-3)]Man(b1-4)GlcNAc(b1-4)GlcNAc
In short: as §1

[27] = molecular target: Man(a1-2)Man(a1-3)[Man(a1-6)]Man(a1-6)[Man(a1-2)Man(a1-3)]Man(b1-4)GlcNAc(b1-4)GlcNAc
In short: as §1

[28] = molecular target: Man(a1-2)Man(a1-6)[Man(a1-3)]Man(a1-6)[Man(a1-2)Man(a1-2)Man(a1-3)]Man
In short: as §1

[29] = molecular target: Man(a1-2)Man(a1-6)[Man(a1-3)]Man(a1-6)[Man(a1-2)Man(a1-2)Man(a1-3)]Man(b1-4)GlcNAc(b1-4)GlcNAc
In short: as §1

[30] = molecular target: Man(a1-3)[Man(a1-6)]Man
In short: as §1

[31] = molecular target: Man(a1-3)[Man(a1-6)]Man(a1-6)[Man(a1-2)Man(a1-3)]Man(b1-4)GlcNAc(b1-4)GlcNAc
In short: as §1

[32] = molecular target: Man(a1-3)[Man(a1-6)]Man(a1-6)[Man(a1-3)]Man
In short: as §1

[33] = molecular target: Man(a1-3)[Man(a1-6)]Man(a1-6)[Man(a1-3)]Man(b1-4)GlcNAc(b1-4)GlcNAc
In short: as §1

[34] = molecular target: Man(a1-3)[Man(a1-6)]Man(b1-4)GlcNAc(b1-4)GlcNAc
In short: as §1

[35] = molecular target: Man(a1-3)[Man(a1-6)]Man(b1-4)GlcNAc(b1-4)[Fuc(a1-6)]GlcNAc
In short: as §1

[36] = molecular target: Man(a1-6)Man
In short: as §1

[37] = molecular target: Man(b1-4)GlcNAc
In short: as §1

[38] = molecular target: MurNAc(b1-4)GlcNAc
In short: as §1

B1: RsaA-N-term (Caulobacter crescentus), P35828 (protein)
chain: MAYTTAQLVTAYTNANLGKAPDAATTLTLDAYATQTQTGGLSDAAALTNTLKLVNSTTAVAIQTYQFFTGVAPSAAGLDFLVDSTTNTNDLNDAYYSKFAQENRFINFSINLATGAGAGATAFAAAYTGVSYAQTVATAYDKIIGNAVATAAGVDVAAAVAFLSRQANIDYLTAFVRANTPFTAAADIDLAVKAALIGTILNAATVSGIGGYATATAAMINDLSDGALSTDNAAGVNLFTAYPSSGVSGSTLSLTTGTDTLTGTANNDTFVAGEVAGDGSGWSHPQFEKGG
- glycan array binding signal (z-score) [1]: -0.788
- glycan array binding signal (z-score) [2]: 0.009
- glycan array binding signal (z-score) [3]: -0.538
- glycan array binding signal (z-score) [4]: -0.423
- glycan array binding signal (z-score) [5]: -0.047
- glycan array binding signal (z-score) [6]: -0.868
- glycan array binding signal (z-score) [7]: -0.611
- glycan array binding signal (z-score) [8]: -0.004
- glycan array binding signal (z-score) [9]: -0.063
- glycan array binding signal (z-score) [10]: -1.09
- glycan array binding signal (z-score) [11]: -0.221
- glycan array binding signal (z-score) [12]: -0.467
- glycan array binding signal (z-score) [13]: 0.278
- glycan array binding signal (z-score) [14]: 1.83
- glycan array binding signal (z-score) [15]: -1.24
- glycan array binding signal (z-score) [16]: -0.837
- glycan array binding signal (z-score) [17]: -1.28
- glycan array binding signal (z-score) [18]: -0.437
- glycan array binding signal (z-score) [19]: 0.029
- glycan array binding signal (z-score) [20]: -0.047
- glycan array binding signal (z-score) [21]: 1.44
- glycan array binding signal (z-score) [22]: -0.515
- glycan array binding signal (z-score) [23]: -0.706
- glycan array binding signal (z-score) [24]: -0.209
- glycan array binding signal (z-score) [25]: -0.494
- glycan array binding signal (z-score) [26]: -0.244
- glycan array binding signal (z-score) [27]: -0.886
- glycan array binding signal (z-score) [28]: -0.583
- glycan array binding signal (z-score) [29]: 1.66
- glycan array binding signal (z-score) [30]: 2.01
- glycan array binding signal (z-score) [31]: 1.32
- glycan array binding signal (z-score) [32]: 0.507
- glycan array binding signal (z-score) [33]: -0.766
- glycan array binding signal (z-score) [34]: 0.174
- glycan array binding signal (z-score) [35]: 0.545
- glycan array binding signal (z-score) [36]: -1.01
- glycan array binding signal (z-score) [37]: -0.454
- glycan array binding signal (z-score) [38]: -0.701
